Assay results published in patent publication US20240279233A1, “MACROCYCLIC TAK1 INHIBITORS” (Aqilion AB, priority 2021, published 2024).
For at least one compound, name, drawing or mass did not settle the structure.

Tested on: phosphorylated p38 (TAK1 activity) in THP-1 cells
Assay: Cell-based p38 phosphorylation assay (Western blot)
Conditions: LPS; for potency and efficacy compared with Comparative Example 1 (takinib): phospho-p38
Method: The cellular activity of example compounds 2, 3 and 9 and the comparative example (i.e. takinib) for inhibiting TAK1 activity was evaluated using an in vitro functional cell assay.
THP-1 cells were incubated at 37° C. in 5% CO2. THP-1 cells were cultured in RPMI 1640, 10% FBS, 1% Penicillin-Streptomycin.
THP-1 cells were treated with 100 nM phorbol 12-myristate 13-acetate (PMA) to induce macrophage differentiation and seeded at the density of 1×10^6 cells/well (2 ml/well in a 6-well plate) for 72 hours. The cell culture media was then replaced with PMA-free media and incubated for further 48 hours. Test compounds were prepared as 200×final assay concentration stocks in DMSO (final concentrations in the assay were 10-0.03 μM in 0.5% DMSO, details provided below). Following THP-1 cell differentiation, cells were treated with different concentrations of the control compound NG25 (CAS No.:1315355-93-1, Tan L, et al. J Med Chem. 2015, 58(1), 183-96) or test compounds (10 μl/well) for 30 minutes followed by 200 ng/ml LPS for 30 minutes.
Test items were kept as 10 mM stock solutions in 100% DMSO. The serial dilution of compounds was prepared as 200× serial dilutions of desired final concentration in […] to reach 0.5% DMSO working solution (see Table 3 below).
Dilution series of compounds from 10 μM final highest concentration to 0.03 μM final low concentration were first made in DMSO (see Table 3), 10 μl of each dilution was mixed into 2 ml of cell cultures (0.5% DMSO per well).
10 μl of DMSO was added to the control. […]
For Western blot analysis, cells were lysed (50 mM Tris, 150 mM NaCl, 1 mM EDTA, 1% Triton-X100, 1 mM DTT, complete protease and PhosStop phosphatase inhibitor) after indicated treatment and run on NuPAGE Bis-Tris gel 4-12% gradient (Invitrogen). […] The images were captured with iBright Western Blot Imaging Systems (Invitrogen) and quantified with ImageJ software (Java-based image processing program developed at the National Institutes of Health and the Laboratory for Optical and Computational Instrumentation). […]

SMILES	potency and efficacy compared with Comparative Example 1 (takinib)	IC50 value in phospho-p38 cell assay (in words)
O=C1NCCCCCn2c(nc3ccccc32)NC(=O)c2cccc1c2 [Example 2, 1^1H-2,6-diaza-1(2,1)-benzo[d]imidazola-4(1,3)-benzenacycloundecaphane-3,5-dione]	greater	–
CN1CCN(Cc2ccc3c(c2)nc2n3CCCCCNC(=O)c3cccc(c3)C(=O)N2)CC1 [Example 3, 1^5-((4-methylpiperazin-1-yl)methyl)-1^1H-2,6-diaza-1(2,1)-benzo[d]imidazola-4(1,3)-benzenacycloundecaphane-3,5-dione]	greater	low
